For assay [1], the target named is T1, TMEM59-GST (in HCT116 cell strains) (UniProt Q9BXS4).
T1 sequence: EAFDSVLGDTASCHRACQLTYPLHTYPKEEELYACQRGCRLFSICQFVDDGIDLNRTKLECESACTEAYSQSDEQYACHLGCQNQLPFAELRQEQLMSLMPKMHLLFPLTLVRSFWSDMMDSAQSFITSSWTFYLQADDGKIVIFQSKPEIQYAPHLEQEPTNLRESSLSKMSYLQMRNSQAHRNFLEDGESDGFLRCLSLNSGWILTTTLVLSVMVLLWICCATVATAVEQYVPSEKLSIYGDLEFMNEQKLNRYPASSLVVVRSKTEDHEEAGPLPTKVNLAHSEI
Nature of the assay: co-IP; Parental and knock-in HCT116, restored ATG16L1-/- HCT116 and restored Atg16l1-/- MEFs, retrovirally transduced with TMEM59-GST for 36 h; glutathione-agarose precipitates; immunoblot. In general terms: Immunoblotting shows a protein as a band on a membrane.

Sequences of proteins named here, by UniProt entry; tags and fusion partners are left off. A change or cut given only in a name is not applied to a line headed by its entry. A line that says so, or that is headed by a name, gives the form on record, which may keep a tag or linker.
UniProt Q9HC29: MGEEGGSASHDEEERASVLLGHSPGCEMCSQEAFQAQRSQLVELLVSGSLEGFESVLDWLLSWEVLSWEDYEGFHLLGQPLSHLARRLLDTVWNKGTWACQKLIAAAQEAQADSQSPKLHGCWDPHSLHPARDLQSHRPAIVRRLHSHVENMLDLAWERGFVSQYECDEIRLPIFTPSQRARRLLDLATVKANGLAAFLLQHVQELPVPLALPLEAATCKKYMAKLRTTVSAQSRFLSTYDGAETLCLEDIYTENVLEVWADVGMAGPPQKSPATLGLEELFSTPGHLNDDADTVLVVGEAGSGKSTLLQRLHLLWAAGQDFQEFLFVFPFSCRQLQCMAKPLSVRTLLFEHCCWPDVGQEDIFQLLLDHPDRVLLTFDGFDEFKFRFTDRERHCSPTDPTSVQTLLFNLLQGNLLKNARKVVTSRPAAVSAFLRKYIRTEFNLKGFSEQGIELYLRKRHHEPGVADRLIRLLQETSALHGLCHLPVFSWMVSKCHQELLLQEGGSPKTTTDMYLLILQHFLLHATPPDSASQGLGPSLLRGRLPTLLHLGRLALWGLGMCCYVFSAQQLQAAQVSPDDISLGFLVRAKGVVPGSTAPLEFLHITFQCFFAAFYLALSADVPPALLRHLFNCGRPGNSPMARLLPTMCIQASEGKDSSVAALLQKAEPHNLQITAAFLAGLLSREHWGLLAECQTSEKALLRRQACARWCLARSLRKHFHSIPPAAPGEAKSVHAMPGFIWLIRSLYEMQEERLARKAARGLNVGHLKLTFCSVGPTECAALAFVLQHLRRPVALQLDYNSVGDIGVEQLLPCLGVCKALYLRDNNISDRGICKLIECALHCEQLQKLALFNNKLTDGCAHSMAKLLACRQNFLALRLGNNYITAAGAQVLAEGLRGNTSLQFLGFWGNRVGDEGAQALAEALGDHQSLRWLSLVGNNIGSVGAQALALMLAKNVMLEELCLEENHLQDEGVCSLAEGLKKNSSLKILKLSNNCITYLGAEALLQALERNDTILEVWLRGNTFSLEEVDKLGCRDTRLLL
UniProt O60603: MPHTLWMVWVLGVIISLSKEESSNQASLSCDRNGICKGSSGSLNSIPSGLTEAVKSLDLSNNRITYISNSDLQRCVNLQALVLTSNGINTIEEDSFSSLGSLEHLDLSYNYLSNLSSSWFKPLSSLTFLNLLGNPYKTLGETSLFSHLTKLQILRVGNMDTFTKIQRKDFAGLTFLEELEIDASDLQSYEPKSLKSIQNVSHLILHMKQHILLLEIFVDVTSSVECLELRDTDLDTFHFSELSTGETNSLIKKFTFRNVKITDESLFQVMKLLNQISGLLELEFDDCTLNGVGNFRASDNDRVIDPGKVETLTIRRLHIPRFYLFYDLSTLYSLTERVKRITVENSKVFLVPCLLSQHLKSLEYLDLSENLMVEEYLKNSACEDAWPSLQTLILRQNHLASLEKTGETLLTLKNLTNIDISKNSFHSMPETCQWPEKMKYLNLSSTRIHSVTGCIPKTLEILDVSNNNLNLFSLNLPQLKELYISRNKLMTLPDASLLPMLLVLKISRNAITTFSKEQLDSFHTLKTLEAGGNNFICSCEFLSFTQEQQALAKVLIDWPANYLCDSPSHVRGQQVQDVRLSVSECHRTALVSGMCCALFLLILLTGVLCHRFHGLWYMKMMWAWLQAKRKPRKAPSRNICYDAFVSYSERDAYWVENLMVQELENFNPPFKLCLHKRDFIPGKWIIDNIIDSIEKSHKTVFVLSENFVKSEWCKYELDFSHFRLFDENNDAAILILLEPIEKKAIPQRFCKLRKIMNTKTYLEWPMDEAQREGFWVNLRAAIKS
UniProt Q8WXF8: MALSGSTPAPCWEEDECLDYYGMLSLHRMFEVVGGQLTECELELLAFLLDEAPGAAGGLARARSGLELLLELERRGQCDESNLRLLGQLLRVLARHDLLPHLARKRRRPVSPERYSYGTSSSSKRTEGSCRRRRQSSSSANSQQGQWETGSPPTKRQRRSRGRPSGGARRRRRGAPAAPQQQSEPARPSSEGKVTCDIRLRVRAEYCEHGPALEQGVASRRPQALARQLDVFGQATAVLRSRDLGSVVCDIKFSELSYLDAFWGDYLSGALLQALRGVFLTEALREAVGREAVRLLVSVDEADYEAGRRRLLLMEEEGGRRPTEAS
UniProt Q9Y228: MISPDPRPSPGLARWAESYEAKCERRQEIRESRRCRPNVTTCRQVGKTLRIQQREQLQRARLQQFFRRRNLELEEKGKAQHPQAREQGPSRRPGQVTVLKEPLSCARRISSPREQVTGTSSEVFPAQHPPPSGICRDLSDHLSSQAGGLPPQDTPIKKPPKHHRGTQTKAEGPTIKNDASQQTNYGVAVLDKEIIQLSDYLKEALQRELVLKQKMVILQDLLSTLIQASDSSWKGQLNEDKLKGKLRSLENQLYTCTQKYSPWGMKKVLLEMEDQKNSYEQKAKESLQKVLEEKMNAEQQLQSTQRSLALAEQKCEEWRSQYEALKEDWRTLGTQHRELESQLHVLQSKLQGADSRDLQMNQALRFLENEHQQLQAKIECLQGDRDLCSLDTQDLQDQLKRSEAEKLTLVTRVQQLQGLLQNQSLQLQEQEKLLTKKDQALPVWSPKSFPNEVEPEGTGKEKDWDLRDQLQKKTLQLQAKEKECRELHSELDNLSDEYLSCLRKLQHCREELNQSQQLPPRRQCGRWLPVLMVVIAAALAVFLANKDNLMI
UniProt Q676U5: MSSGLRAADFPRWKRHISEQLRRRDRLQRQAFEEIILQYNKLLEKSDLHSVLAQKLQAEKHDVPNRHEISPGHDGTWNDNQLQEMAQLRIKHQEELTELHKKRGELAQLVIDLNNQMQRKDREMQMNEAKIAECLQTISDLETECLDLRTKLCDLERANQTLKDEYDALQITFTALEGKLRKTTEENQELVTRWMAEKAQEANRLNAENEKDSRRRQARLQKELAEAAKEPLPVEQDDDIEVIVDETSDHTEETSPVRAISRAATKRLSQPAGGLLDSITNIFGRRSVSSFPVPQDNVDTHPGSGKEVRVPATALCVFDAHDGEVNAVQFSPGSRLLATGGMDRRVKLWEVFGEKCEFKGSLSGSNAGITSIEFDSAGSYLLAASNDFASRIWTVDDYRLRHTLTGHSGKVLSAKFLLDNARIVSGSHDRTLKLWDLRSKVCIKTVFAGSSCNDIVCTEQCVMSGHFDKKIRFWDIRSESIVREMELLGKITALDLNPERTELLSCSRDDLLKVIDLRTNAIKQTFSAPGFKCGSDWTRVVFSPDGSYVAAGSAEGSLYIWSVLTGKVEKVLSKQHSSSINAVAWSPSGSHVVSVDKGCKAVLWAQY
full-length ATG16L1-A300 expressed in bacteria (Q676U5, form named): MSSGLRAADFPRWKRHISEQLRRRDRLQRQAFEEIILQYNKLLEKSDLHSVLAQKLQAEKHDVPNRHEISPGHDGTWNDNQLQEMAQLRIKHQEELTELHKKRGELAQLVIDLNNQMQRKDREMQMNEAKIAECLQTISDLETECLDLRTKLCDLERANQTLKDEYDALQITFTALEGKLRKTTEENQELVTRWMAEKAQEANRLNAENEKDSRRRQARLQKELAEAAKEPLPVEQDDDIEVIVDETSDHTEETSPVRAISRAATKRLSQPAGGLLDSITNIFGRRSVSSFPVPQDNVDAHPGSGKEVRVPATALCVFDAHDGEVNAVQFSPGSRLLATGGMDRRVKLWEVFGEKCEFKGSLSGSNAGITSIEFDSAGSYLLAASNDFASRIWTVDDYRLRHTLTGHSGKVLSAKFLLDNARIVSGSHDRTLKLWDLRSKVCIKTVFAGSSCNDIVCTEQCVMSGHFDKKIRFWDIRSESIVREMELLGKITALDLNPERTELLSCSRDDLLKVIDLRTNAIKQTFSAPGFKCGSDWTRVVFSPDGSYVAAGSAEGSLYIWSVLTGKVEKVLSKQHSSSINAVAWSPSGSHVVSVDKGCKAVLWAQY

For assay [2], the target named is T2, TMEM59-GST (TMEM59 tagged with glutathione-S-transferase) (UniProt Q9BXS4).
T2 sequence: T1 sequence
Nature of the assay: co-IP; HEK-293T cells transfected with both partners and lysed 36 h after transfection (1% Igepal CA-630, 50 mM Tris HCl pH 7.5, 150 mM NaCl, 5 mM EDTA); lysate diluted to 0.2% detergent; the GST fusion precipitated on glutathione-agarose (4 °C, 1-3 h); immunoblot.

Assay [3] addresses T3, TMEM59-GST (in restored Atg16l1-/- MEFs) (UniProt Q9BXS4).
T3 sequence: T1 sequence
Nature of the assay: co-IP; Parental and knock-in HCT116, restored ATG16L1-/- HCT116 and restored Atg16l1-/- MEFs, retrovirally transduced with TMEM59-GST for 36 h; glutathione-agarose precipitates; immunoblot.

Assay [4] has as its target T3, TMEM59-GST (in restored Atg16l1-/- MEFs). Description: co-IP; Atg16l1-/- MEFs reconstituted with HA-ATG16L1 T300 or A300, retrovirally transduced with TMEM59-GST, infected with GFP-expressing S. aureus (2 h, m.o.i. 25) or left uninfected; glutathione-agarose precipitates; immunoblot.
For assay [5], the target named is T4, GST-NOD2(63–78) (UniProt Q9HC29).
T4 sequence: WEVLSWEDYEGFHLLG
Nature of the assay: pull-down; GST fusion proteins from E. coli BL21 loaded on glutathione-agarose beads; incubated with crude bacterial lysate containing ATG16L1-T300 or -A300 (equivalent to 1 ml of induced culture, 3 h, 4 °C); western blot; only the target purified.

Assay [6] has as its target GST-TLR2(761–779) (UniProt O60603). Described as above.
Assay [7] addresses T5, GST-263–281 (fusion between GST and the active element of TMEM59) (UniProt Q9BXS4).
T5 sequence: TAVEQYVPSEKLSIYGDLE
Described as above.

Assay [8] addresses T6, GST-DEDD2(12–25) (UniProt Q8WXF8).
T6 sequence: WEEDECLDYYGMLS
Described as above.

The target of assay [9] is T7, GST-T3JAM(318–333) (UniProt Q9Y228).
T7 sequence: WRSQYEALKEDWRTLG
The description is as above.

Data on ten substances can be found in article PMC4899871.

These are yes or no findings as the source states them, for the method shown. Binding seen in cells or lysates may run through a third protein. Some binding calls cover weakened binding; strength is not graded here. For some assays here: Where a sequence is shown, tags or fusion partners need not be part of it.

As for “ATG16L1 of parental HCT116 cells (T300) (from UniProt Q676U5 1-607)”, the binding result in [1] is “binds”.

On to “ATG16L1-A300 of knock-in HCT116 cells (KI-ATG16L1-T300A) (from UniProt Q676U5 1-607)”, for which the binding entry in assay [1] is on record as “binds”.

As to “HA-ATG16L1-A300 (full-length human ATG16L1β, T300A Crohn's disease risk allele) (from UniProt Q676U5 1-607)”, in assay [2], the binding result was “binds”.

For “HA-ATG16L1-A300 (in restored ATG16L1-/- HCT116 cells) (from UniProt Q676U5 1-607)”, in [1], the binding result is “binds”.

Regarding “HA-ATG16L1-A300 (in restored Atg16l1-/- MEFs) (from UniProt Q676U5 1-607)”, the binding result in [3] and in assay [4] was “binds” each time.

Regarding “HA-ATG16L1-T300 (full-length human ATG16L1β, non-risk allele) (from UniProt Q676U5 1-607)”, in assay [2], the binding entry is reported as “binds”.

As for “HA-ATG16L1-T300 (in restored ATG16L1-/- HCT116 cells) (from UniProt Q676U5 1-607)”, the binding result in assay [1] is “binds”.

Take “HA-ATG16L1-T300 (in restored Atg16l1-/- MEFs) (from UniProt Q676U5 1-607)”: the binding result in assay [3] and in [4] was “binds” in each case.

Take “full-length ATG16L1-A300 expressed in bacteria (from UniProt Q676U5 1-607)”: the binding entry in [5] and in assay [6] was “binds” throughout.

In the case of “full-length ATG16L1-T300 expressed in bacteria (from UniProt Q676U5 1-607)”, the binding entry in [7], in [8], in assay [5], in assay [9] and in assay [6] was “binds” in each case.
